Results from patent publication EP4821941A1, “BRAIN-TARGETING PEPTIDE, TRANSPORT CARRIER, AND METHOD FOR SCREENING PEPTIDE BINDING TO TARGET CELL” (dated 2026).
The match of structure and compound is tentative.

Assays:
[1] = tested on: Whole cerebrum; assay: In vivo panning of a phage display peptide library in mice, next-generation sequencing read counts (whole cerebrum); conditions: after third round of in vivo panning; phage library 1×10^11 cfu via tail vein; tissues collected five minutes after administration
[2] = tested on: Cortical neurons; assay: In vivo panning of a phage display peptide library in mice, next-generation sequencing read counts (cortical neurons); conditions: after third round of in vivo panning; phage library 1×10^11 cfu via tail vein; cells collected by laser capture microdissection

C[C@H](NC(=O)[C@H](CCCNC(=N)N)NC(=O)[C@H](CC(=O)O)NC(=O)[C@@H](N)[C@@H](C)O)C(=O)N1CCC[C@H]1C(=O)N[C@@H](Cc1c[nH]cn1)C(=O)N[C@@H](CCCNC(=N)N)C(=O)O
Number of reads Whole cerebrum [1]: 19 | Number of reads Cortical neurons [2]: 104
